Results are given in words; binding and its absence hold for the method and conditions named. For some of these results: Binding seen in cells or lysates may run through a third protein. Some binding calls cover weakened binding; strength is not graded here.
Experiments:
[1] = molecular target: endogenous Ku70 (human (endogenous in HEK293T and HeLa)) (UniProt P12956); assay: SEC; Superose 6 10/300 GL (5-5000 kDa); total cell extracts (DMSO, etoposide or doxorubicin 24 h); fractions immunoblotted with anti-ATG5 and anti-Ku70
[2] = molecular target: non-tagged full-length human ATG5 (human) (UniProt Q9H1Y0); assay: co-IP; HEK293T transfected with non-tagged ATG5; IP with anti-ATG5 antibody on protein G or A-agarose, 2 mg lysate; blots for endogenous Ku70 and Ku80; DMSO or etoposide
[3] = molecular target: endogenous ATG5 (human (endogenous in HEK293T)) (UniProt Q9H1Y0); assay: co-IP; co-IP from cellular fractions of doxorubicin treated HEK293T cells
[4] = molecular target: endogenous ATG5 (human (endogenous in HEK293T)) (UniProt Q9H1Y0); assay: co-IP; endogenous IP from HEK293T; antibody-coupled protein G or A-agarose, 2 mg lysate; rabbit serum as control; DMSO or etoposide 24 h

Protein sequences, listed by entry. Tags and fused reporters are not part of them.
UniProt P12956: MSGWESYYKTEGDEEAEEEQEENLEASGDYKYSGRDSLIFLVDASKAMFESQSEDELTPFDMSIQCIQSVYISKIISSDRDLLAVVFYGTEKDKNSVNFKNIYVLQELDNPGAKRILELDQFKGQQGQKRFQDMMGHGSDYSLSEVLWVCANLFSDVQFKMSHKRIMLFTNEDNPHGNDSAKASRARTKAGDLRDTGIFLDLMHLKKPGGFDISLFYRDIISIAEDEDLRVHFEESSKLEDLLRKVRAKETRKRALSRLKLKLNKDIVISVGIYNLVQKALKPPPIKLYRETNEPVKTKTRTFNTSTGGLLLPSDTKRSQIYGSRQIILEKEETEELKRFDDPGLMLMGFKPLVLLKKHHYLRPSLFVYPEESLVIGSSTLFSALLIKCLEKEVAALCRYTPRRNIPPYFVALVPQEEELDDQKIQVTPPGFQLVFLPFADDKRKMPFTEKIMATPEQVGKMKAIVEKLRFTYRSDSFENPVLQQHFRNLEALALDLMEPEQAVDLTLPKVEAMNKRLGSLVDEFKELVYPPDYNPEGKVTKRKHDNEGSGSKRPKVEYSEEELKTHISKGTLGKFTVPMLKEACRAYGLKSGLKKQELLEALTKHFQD
UniProt Q9H1Y0: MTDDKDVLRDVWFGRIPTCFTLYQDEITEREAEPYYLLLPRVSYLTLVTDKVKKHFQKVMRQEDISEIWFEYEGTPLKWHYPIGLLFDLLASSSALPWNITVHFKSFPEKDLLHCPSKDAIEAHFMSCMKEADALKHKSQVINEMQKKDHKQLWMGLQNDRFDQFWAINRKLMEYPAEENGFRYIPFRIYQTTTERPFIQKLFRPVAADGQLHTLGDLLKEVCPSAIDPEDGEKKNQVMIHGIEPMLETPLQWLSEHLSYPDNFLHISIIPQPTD

binding [1] | binding [2] | binding [3] | binding [4] | Substance
binds | – | – | – | ATG5-12 (from UniProt Q9H1Y0 1-275; O94817 1-140) (complex)
– | binds | binds | binds | endogenous Ku70 (from UniProt P12956 1-609)

From paper PMC9114114
